Some of the results follow.
B1: il2ra_site2_3nfp_sap_20_mot_HHH_b1_04032_000000208_0001_43_56_H_._HHH_b2_08352_af2_0001_0000400042_0000001_0_0001 (protein)
chain: SSSSDTEEYLRAVLALAKEALENGDPEFARRLAELALQAAEDANDPELFEEIRELLEEIEGSSSS
B2: il2ra_site1_2b5i_sap_16_mot_HHH_b2_06557_000000121_0001_42_56_H_._HHH_b1_04909_0001_0000700040_0000001_0_0001_af2pred_dldesign_0_af2pred (protein)
chain: SSSSSSDEVYDLFKEAERLRREGKKEEAKKLLEKAIELAKKLGETKKVEELEYLLKNLSSSSSSS
B3: il2ra_site2_3nfp_normal_mot_HHH_b2_04451_000000238_0001_21_37_H_._HHH_b1_00607_af2_0001_0000100014_0000001_0 (protein)
chain: SSSSSDEERVEELEEQIKRAEEEGDRAEVLRLLAEVTRLAAKAGDEELARRVLELFEKLQSSSSS
B4: il2ra_site1_3nfp_sap_13_mot_HHH_b1_04931_000000291_0001_38_56_H_._HHH_b2_07276_0001_0000200010_0000001_0_0001 (protein)
chain: SSSSSDYEELERLFREIFELAKKGDHEEARRLIEELEELAHEANNEFMEQAVKQLKKTVNSSSSS
B5: il2ra_site1_2b5i_sap_11_mot_HHH_b1_08027_af2_000000009_0001_1_17_H_._HHH_b2_04458_af2_0001_0000100003_0000001_0_0001 (protein)
chain: SSSSDRELTRAAVRIVWRLMYRLNLDREEAQLLNRLAAELVDRGVSPEELEEILREYAEEISSSS
B6: il2ra_site2_2erj_sap_21_mot_HHH_b2_08364_000000146_0001_1_19_H_._19cb7799addf660ec2645d5c0312015a_0001_1_0001_0000300017_0000001_0_0001_af2pred_0001_af2pred (protein)
chain: SSSSSEDEEEVKKLLEEAKRIEDPERATELVIEAFQIALEINNEELLREIHKLSRELYHGSSSSS
B7: il2ra_site1_1z92_normal_mot_HHH_b1_07526_000000113_0001_40_57_H_._HHH_b1_02791_af2_0001_0000100008_0000001_0_af2pred_0001_af2pred_1 (protein)
chain: SSSSDSEERLRELIEELVRELGLSERDEKNLEKLLEWALELGADEEDIERALRHFARALRGSSSS
B8: il2ra_site1_2b5i_sap_20_mot_HHH_b1_06515_af2_000000249_0001_1_17_H_._HHH_b1_03551_af2_0001_0000500037_0000001_0_0001 (protein)
chain: SSSDEEELAHIAAEIVARLFYRFGLSAEQSQELDRVASELAEEGVSPEEVEEILRRVAEELSSSS
B9: il2ra_site1_2b5i_sap_18_mot_098064ffb003ae9d220488cec4d80c2b_0001_af2_000000106_0001_17_32_H_._HEEHE_2699_0001_0000100017_0000001_1_0001_af2pred_dldesign_0_af2p … (protein)
chain: SSSSSSDEAERLFEEAKRLKAAGKRREALEALERAAKLADAAGREDLRDEIEAFAKTVSSSSSSS
B10: il2ra_site2_3nfp_sap_17_mot_HHH_b2_07946_000000046_0001_20_36_H_._HHH_b2_06724_0001_0001200050_0000001_0_0001 (protein)
chain: SSSSSEVLEELERMIELAIQSARSLGDPEVEEKLEELLERLREEGDPRAALEAYELAARAYSSSS
B11: il2ra_site2_2erj_sap_34_mot_720936397f2d31669eff21710c18a4fc_0001_000000071_0001_37_51_H_._HHH_b1_04472_0001_0000300015_0000001_0_0001 (protein)
chain: SSSSSDDNSKAALKFLEERVEEAPDEEAARAAAELALRFAKLAGDEELERLIEELLEELRSSSSS
B12: il2ra_site2_3nfp_normal_mot_HHH_b1_00660_af2_000000090_0001_40_57_H_._HHH_b2_06268_af2_0001_0000300014_0000001_0 (protein)
chain: SSSSDEEEEQVEKLYEEAKRLLEEGDPFRAFAVLSDARELAARLGNEELAQKLARLAAEIYSSSS
B13: il2ra_site2_2erj_normal_mot_HHH_b2_02430_000000062_0001_23_40_H_._HHH_b1_00942_af2_0001_0000400038_0000001_0 (protein)
chain: SSSSNEELHELFRLAAKLAELVYRGDEEQFEKVFRELEELIEKLNSENAKEVLEWLREHLHSSSS
B14: il2ra_site2_3nfp_sap_17_mot_HHH_b1_06677_000000111_0001_20_36_H_._036bed11a46af16b1bcff1c055f4941a_0001_af2_0001_0000400013_0000001_0_0001 (protein)
chain: DEEKELEEKAKEAVEKQDPELAFEVTREAALDPEAWEELLRVLEELNNALELYRLAAEYYKKRVS
B15: il2ra_site2_2erj_normal_mot_HHH_b1_05749_af2_000000058_0001_23_39_H_._HHH_b1_03571_af2_0001_0000100007_0000001_0 (protein)
chain: SSSSDEELRELFELAVRILALIARGNPEEAERLLKELKELAEETNSENVKELVEFLEERLRSSSS
B16: il2ra_site2_2erj_sap_11_mot_HHH_b2_06236_000000050_0001_39_52_H_._HHH_b2_02704_0001_0000200013_0000001_0_0001 (protein)
chain: SSSSDEASRISVEAFRRARELFKRGNPEEAREILEEAIRLLEELGDEDAAKTLESLLKLLSSSSS
B17: il2ra_site1_1z92_normal_mot_HHH_b1_05118_af2_000000199_0001_39_52_H_._HHH_b1_04212_af2_0001_0000200012_0000001_0_af2pred_0001_af2pred (protein)
chain: SSSSSDEQELFEEVAELFEEAAKIRDQEERKRLLEEALELARQANNPLLEELVERMLKALSSSSS
B18: il2ra_site2_2erj_sap_15_mot_HHH_b1_01239_000000175_0001_43_57_H_._HHH_b1_06544_0001_0000200010_0000001_0_0001 (protein)
chain: SSSSSDRLREAYRLAVEVMHLLARGDEEEAERLAEEVQRLLEELGTPEAAEMLRELLRILSSSSS
B19: il2ra_site1_2b5i_sap_13_mot_9a773f325bc24391a11cd301277c1e75_0001_1_000000041_0001_1_15_H_._06d6c94188ba5cb0f575164e5db69022_0001_0001_0000300013_0000001_0_0001 … (protein)
chain: SSSSSEIEDEIYDLYKEALAAKRAGKHEEAKKLLEEAIKLAKEANDEKLVAELERFLTLLSSSSS

Each binder was assayed against il2ra, P01589 (assay: yeast display titration).

Row | Binder | apparent Kd
1 | B1 | inactive: no binding seen
2 | B2 | inactive: no binding seen
3 | B3 | inactive: no binding seen
4 | B4 | inactive: no binding seen
5 | B5 | inactive: > 1.5 µM
6 | B6 | inactive: no binding seen
7 | B7 | inactive: no binding seen
8 | B8 | inactive: no binding seen
9 | B9 | inactive: no binding seen
10 | B10 | inactive: no binding seen
11 | B11 | inactive: no binding seen
12 | B12 | inactive: no binding seen
13 | B13 | inactive: no binding seen
14 | B14 | inactive: no binding seen
15 | B15 | inactive: no binding seen
16 | B16 | inactive: no binding seen
17 | B17 | inactive: no binding seen
18 | B18 | inactive: no binding seen
19 | B19 | inactive: no binding seen

Already shown: an excerpt of the list.
Row | Binder | apparent Kd
2 | B2 | inactive: no binding seen
3 | B3 | inactive: no binding seen

Source: publication PMC10163288
